Laboratory results published in PubChem BioAssay AID2685 (National Center for Advancing Translational Sciences (NCATS), 2010).
The other results are listed elsewhere or left out. Further columns of the screen follow, without active or inactive calls. Most of these compounds were active or inconclusive in the main read-out, so they are no random draw. Potencies come from curve fits of mixed quality, noted in brackets.

Test: qHTS Assay for Lipid Storage Modulators in Drosophila S3 Cells;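 for cell number change: cells counted by Cell Tracker Red CMTPX staining in the red channel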
Conditions: BODIPY lipid droplet fluorescence, 18-24 h; for cell number change: measured here: cell count max response, cells fed with added oleic acid
Procedure, shortened: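 Drosophila S3 cells loaded with oleic acid (400 uM, as added) and compounds at several concentrations; lipid droplets imaged by 488-nm laser-scanning cytometry, 500–530 nm intensity and object ratio to cell channel. Percent activity normalized to 20 uM Triacsin C.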

[1] = measured here: lipid fluorescence (Fed channel) AC50, cells fed with added oleic acid
[2] = measured here: cell number channel AC50, cells fed with added oleic acid

SMILES | cell number change [%] | AC50 [1] | AC50 [2]
CC(=O)N1CCN(c2nc(CC(C)C)c3c(c2C#N)CCC3)CC1 | 4.13 | 6.51 µM [rising, single point] | –
O=C(C1=C[C@@H]2[C@H]3C(=O)N(c4ccccc4Cl)C(=O)[C@H]3[C@@H](C(=O)c3ccc(Cl)cc3)N2C=C1)c1ccccc1 | – | 0.461 µM [rising, partial curve, poor fit] | –
CCC(NC(=O)c1cc(COc2ccc(F)cc2Cl)on1)c1ccncc1 (stereo unspecified) | – | 6.51 µM [rising, single point] | –
COc1ccc(COC(=O)NC(C(=O)O)c2ccccc2)cc1 (stereo unspecified) | -2.97 | 0.00651 µM [falling, full curve, poor fit] | –
Cc1cc(NC(=O)c2ccc(F)cc2)n(-c2ccccn2)n1 | 2.93 | 2.31 µM [falling, partial curve] | 3.26 µM [falling, partial curve]
N#Cc1c2n(c3c(N)ncnc13)CCCCC2 | 12 | – | –
COc1cc(C#N)ccc1OCC(=O)N1CCc2ccccc2C1 | -23.8 | 2.06 µM [falling, single point] | –
CN1C(=O)N(C)c2ccc(C=O)c3cccc1c23 | 9.72 | 6.51 µM [rising, partial curve, poor fit] | –
Cc1ccc(C(=O)NC(=S)NNC(=O)COc2ccccc2C)cc1 | -4.75 | – | –
Cc1cccc(NC2=C(NCCO)C(=O)c3ccccc3C2=O)c1 | -76.8 | 13 µM [falling, partial curve] | 23.1 µM [falling, partial curve, poor fit]
CCOc1ccc(S(=O)(=O)Nc2ccncc2)c(C)c1C | -29.1 | 29.1 µM [falling, single point] | –
N#Cc1ccc2ccn(CC(=O)NC3CCCCC3)c2c1 | -10.4 | 0.103 µM [falling, full curve, poor fit] | –
COCCN(C(=O)C1CCN(C(=O)c2ccccc2C)CC1)c1c(N)n(CC(C)C)c(=O)[nH]c1=O | -14.5 | – | –
COc1ccc(CN2CCCCC2C)cc1OC (stereo unspecified) | -128 | 23.1 µM [falling, partial curve] | 23.1 µM [falling, partial curve]
Cc1occc1-c1nnc(SCC(=O)Nc2nc3ccccc3s2)o1 | 41.1 | 0.651 µM [rising, single point] | 29.1 µM [rising, single point]
c1ccc(Cc2c[nH]c3ccccc23)cc1 | -23 | – | –
CN1CCOc2cc(S(=O)(=O)Nc3ccc(F)cc3)ccc21 | -35 | 0.092 µM [falling, full curve] | 0.206 µM [falling, full curve, poor fit]
CCOc1ccc(C(=O)NC(=S)Nc2cc(C)ccn2)cc1[N+](=O)[O-] | 5.81 | – | –
C=CCN1C(=O)c2ccc(C(=O)N(CC)CC(=O)Nc3cc(Cl)ccc3C)cc2C1=O | -56.2 | 0.58 µM [falling, single point] | 7.31 µM [falling, single point]
COc1ccc(OC)c(-c2nnc(SCC(=O)NC3CCCCC3)o2)c1 | 110 | 6.51 µM [rising, partial curve] | 5.17 µM [rising, full curve]

A different layout for some results above:
SMILES	cell number change [%]	AC50 [1]	AC50 [2]
O=C(C1=C[C@@H]2[C@H]3C(=O)N(c4ccccc4Cl)C(=O)[C@H]3[C@@H](C(=O)c3ccc(Cl)cc3)N2C=C1)c1ccccc1	–	0.461 µM [rising, partial curve, poor fit]	–
CCC(NC(=O)c1cc(COc2ccc(F)cc2Cl)on1)c1ccncc1 (stereo unspecified)	–	6.51 µM [rising, single point]	–
COc1ccc(COC(=O)NC(C(=O)O)c2ccccc2)cc1 (stereo unspecified)	-2.97	0.00651 µM [falling, full curve, poor fit]	–
Cc1cc(NC(=O)c2ccc(F)cc2)n(-c2ccccn2)n1	2.93	2.31 µM [falling, partial curve]	3.26 µM [falling, partial curve]
N#Cc1c2n(c3c(N)ncnc13)CCCCC2	12	–	–
COc1cc(C#N)ccc1OCC(=O)N1CCc2ccccc2C1	-23.8	2.06 µM [falling, single point]	–
CN1C(=O)N(C)c2ccc(C=O)c3cccc1c23	9.72	6.51 µM [rising, partial curve, poor fit]	–
Cc1ccc(C(=O)NC(=S)NNC(=O)COc2ccccc2C)cc1	-4.75	–	–
Cc1cccc(NC2=C(NCCO)C(=O)c3ccccc3C2=O)c1	-76.8	13 µM [falling, partial curve]	23.1 µM [falling, partial curve, poor fit]
CCOc1ccc(S(=O)(=O)Nc2ccncc2)c(C)c1C	-29.1	29.1 µM [falling, single point]	–
N#Cc1ccc2ccn(CC(=O)NC3CCCCC3)c2c1	-10.4	0.103 µM [falling, full curve, poor fit]	–
COCCN(C(=O)C1CCN(C(=O)c2ccccc2C)CC1)c1c(N)n(CC(C)C)c(=O)[nH]c1=O	-14.5	–	–

Next part

SMILES | cell number change [%] | AC50 [1] | AC50 [2]
COc1cccc(NC(=O)CN(C)C(=O)Cc2ccc(Cl)cc2Cl)c1 | 29.5 | – | –
CCN(C(=N)N=C(N)N)c1ccccc1 | -37.4 | 29.1 µM [falling, single point] | –
c1csc(CCNc2ncnc3sc4c(c23)CCC4)c1 | -9.94 | – | –
NC(=O)c1sc2nc3c(c(-c4ccc(Cl)cc4)c2c1N)CCCC3 | 17.6 | 9.2 µM [rising, partial curve] | 0.517 µM [rising, full curve, poor fit]
COc1cccc(OC)c1NC(=O)C1CCCN1C(=O)Nc1cccc(Cl)c1 (stereo unspecified) | -10.5 | 29.1 µM [falling, single point] | –
O=C(Oc1cccnc1)c1ccc(Cl)cc1 | -1.47 | – | –
Cc1cccc(C(=O)N[C@H](C(=O)OCc2cc(=O)n3c(n2)sc2ccccc23)C(C)C)c1 | 0.725 | 0.103 µM [rising, full curve, poor fit] | –
CCCc1cc(=O)n2[nH]c(-c3ccco3)nc2n1 | -30.1 | 2.06 µM [falling, full curve, poor fit] | 2.59 µM [falling, full curve]
CC(C)(C)c1nc2ccc([N+](=O)[O-])cc2[nH]1 | -0.331 | – | –
O=c1oc2ccccc2cc1-c1nc2c(s1)CCc1ccccc1-2 | -1.59 | 0.517 µM [falling, single point] | –
O=C(Nc1csnn1)c1csnn1 | -37 | 0.651 µM [rising, single point] | 29.1 µM [falling, single point]
O=C(Cc1c(F)cccc1Cl)c1ccc(O)cc1O | -53.2 | 7.31 µM [falling, partial curve] | 9.2 µM [falling, partial curve]
CCOc1ccc(N(CC(=O)N2CCCCCC2)S(=O)(=O)c2ccc(C)cc2)cc1 | 1.45 | 29.1 µM [falling, single point] | –
C/C(N)=C(/C#N)C(=O)COC(=O)CNS(=O)(=O)c1c(F)cccc1F | -31.5 | – | –
O=S(=O)(Cc1ccc(Cl)cc1)c1ncc(CO)n1Cc1ccccc1 | -5.81 | 6.51 µM [falling, single point] | –
CC1CCCC(C)N1C(=O)COC(=O)c1cc(Br)ccc1Cl (stereo unspecified) | -31.7 | 20.6 µM [falling, single point] | 29.1 µM [falling, single point]
Cc1ccc(-c2ccc(C(=O)NCc3ccccc3)o2)c2ccccc12 | -2.61 | 2.59 µM [rising, full curve] | –
COC(=O)c1ccc(C2=NOC(C)(c3sc(-c4ccc(Cl)cc4)nc3C)C2)cc1 (stereo unspecified) | 29 | 9.2 µM [rising, partial curve] | –
O=c1c2cc(NC(=S)N3CCCCCC3)ccc2nc2n1CCCCC2 | -23.2 | 7.31 µM [falling, partial curve] | –
CCCCn1c(SCC(=O)Nc2cc(C)on2)nc2ccccc2c1=O | – | 0.411 µM [rising, full curve] | 0.517 µM [rising, partial curve]

SMILES | cell number change [%] | AC50 [1] | AC50 [2]
O=S(Cc1ccc(Br)cc1)Cc1nnc(SCc2c(F)cccc2Cl)n1-c1ccccc1 (stereo unspecified) | 0.777 | 2.06 µM [rising, single point] | –
CN(c1ccc(O)cc1)c1nc(-c2ccccc2)cs1 | -62.2 | 2.91 µM [falling, partial curve] | 29.1 µM [falling, single point]
O=C(Nc1nc2ccccc2c(=O)s1)c1ccc(F)cc1Cl | 2.84 | – | –
COc1ccc(-n2c(N)c(C(=O)NCc3cccnc3)sc2=S)cc1 | – | 3.26 µM [rising, partial curve] | 0.731 µM [rising, full curve]
COc1ccc(/C=C(\NC(=O)/C=C/c2ccco2)C(=O)NCCc2nc3ccccc3[nH]2)cc1 | -21.1 | 29.1 µM [rising, single point] | 3.66 µM [falling, single point]
CC1CCN(S(=O)(=O)c2cnc[nH]2)CC1 | 14.9 | 13 µM [rising, partial curve] | –
Cc1cccc(OCCCSc2nc3ccc(C)cc3[nH]2)c1 | 53.6 | – | 16.4 µM [rising, single point]
CCN1CCN(CCNC(=O)c2ccc(/C=C3\Sc4ccccc4N(Cc4ccccc4F)C3=O)cc2)CC1 | -37.1 | 29.1 µM [falling, single point] | 0.517 µM [falling, full curve, poor fit]
CC1(C)CC(NC(=O)c2ccc(Cl)cc2)CC(C)(C)N1 | 4.5 | 6.51 µM [rising, single point] | –
O=C(CSc1ccccc1)Nc1nnc(-c2ccco2)o1 | -52.4 | 20.6 µM [falling, partial curve] | 13 µM [falling, partial curve]
CCN(c1ccc(NC(=O)c2cccc(S(=O)(=O)N3CCN(C)CC3)c2)cc1)C(C)C | 55.7 | – | 29.1 µM [rising, partial curve, poor fit]
CCCc1c(NC(=O)Nc2ccc(F)cc2)cnn1-c1ccc(Cl)cc1 | 8.37 | 0.259 µM [rising, full curve, poor fit] | –
Clc1ccc(Oc2cccc(/C=N/n3cnnc3)c2)cc1 | -37.4 | 2.31 µM [rising, partial curve] | 29.1 µM [falling, single point]
COc1ccc(/C=N/NC(=O)CCC(=O)Nc2ccc(Br)cc2)c(OC)c1 | -65.2 | 29.1 µM [falling, single point] | 29.1 µM [falling, single point]
Cc1ccc(S(=O)(=O)N2CCCC2)s1 | 22.7 | 35.5 µM [rising, single point] | –
Cc1onc(-c2c(Cl)cccc2Cl)c1C(=O)NCc1cccs1 | – | 6.51 µM [falling, single point] | 6.51 µM [falling, single point]
COc1ccc(C(=O)c2coc(-c3ccccc3C(=O)O)c2C(=O)O)cc1 | -10.1 | 16.4 µM [falling, partial curve] | –
CCOC(=O)c1sc(NC(=O)c2cc(-c3ccccc3)nc3ccccc23)c(C#N)c1C | -4.02 | 0.206 µM [falling, full curve, poor fit] | –
